Assay results: the supplement of paper PMC8256030
Where a name gives a salt, the structure may show the parent alone. The list shows a part of the results. Single values are uncertain here, since repeats match poorly.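 HEK293T cells were given each compound shortly before transfection with a reporter in which red mCherry is followed by the SARS-CoV-2 frameshift element and then GFP in the −1 frame, so GFP appears only after frameshifting.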

Columns and labels:
[1] = system: SARS-CoV-2 -1 PRF reporter mCherry-FSE-GFP(-1); assay: mCherry (red) intensity as percent of control; higher = higher upstream reporter expression; details: 10 µM; 24 h; HEK293T
[2] = system: SARS-CoV-2 -1 PRF reporter mCherry-FSE-GFP(-1); assay: percent effect, decrease of GFP/mCherry ratio (-1 PRF reporter) relative to controls; higher = stronger frameshift inhibition; details: 10 µM; 24 h; HEK293T

Question: Which results are given for `Cc1ccc(S(=O)(=O)NC(=O)NN2CCCCCC2)cc1` [Tolazamide]?
Answer: mCherry [1]: 83.1%; percent effect [2]: -7.04%

Question: For `COc1ccc(-c2nc(C(F)(F)F)[nH]c2-c2ccc(OC)cc2)cc1` [flumizole], which mCherry [1] is on record?
Answer: Its mCherry is 103%.

Question: And the percent effect [2]?
Answer: The percent effect was -4.93%.

Question: How did the mCherry [1] turn out when `CCN(CC)CCOCCOC(=O)C(CC)(CC)c1ccccc1` was run?
Answer: The mCherry was 96.2%.

Question: What about the percent effect [2] of the same compound?
Answer: The percent effect was 2.67%.

Question: What does the source list for `O=C(/C=C/c1ccc2c(c1)OCO2)N1CCN(CC(=O)N2CCCC2)CC1` [cinoxopazide]?
Answer: mCherry [1]: 80.3%; percent effect [2]: -0.358%

Question: For `O=[N+]([O-])c1c(Cl)cccc1-c1c[nH]cc1Cl` [pyrrolnitrin], which mCherry [1] is on record?
Answer: Its mCherry is 94.3%.

Question: What about the percent effect [2] of the same compound?
Answer: The percent effect was -3.82%.

Question: With `CCN1CCN(C(=O)N[C@@H](C(=O)N[C@@H]2C(=O)N3[C@@H]2SC(C)(C)[C@@H]3C(=O)O)c2ccccc2)C(=O)C1=O` as the compound, how does the mCherry [1] read?
Answer: Its mCherry is 120%.

Question: What about the percent effect [2] of the same compound?
Answer: Its percent effect is -8.73%.

Question: What does the source list for `CC(C(=O)O)c1ccc2c(c1)Cc1ccccc1-2` (centres undefined) [cicloprofen]?
Answer: mCherry [1]: 109%; percent effect [2]: -8.19%

Question: Which results are given for `CCCCCCC[N+](CC)(CC)CCCCc1ccc(Cl)cc1` [clofilium tosylate]?
Answer: mCherry [1]: 36.4%; percent effect [2]: -12.6%

Question: Which mCherry [1] does the source give for `N#Cc1c[nH]c2c(C(=O)N3CCN(CCc4ccc(F)cc4)CC3)cccc12` [pruvanserin] here?
Answer: The mCherry was 104%.

Question: And the percent effect [2]?
Answer: The percent effect was 0.262%.

Question: How did the mCherry [1] turn out when `CCCCCCOC(=O)NC(=N)c1ccc(NCc2nc3cc(C(=O)N(CCC(=O)OCC)c4ccccn4)ccc3n2C)cc1` [dabigatran etexilate] was run?
Answer: The mCherry was 96.8%.

Question: What about the percent effect [2] of the same compound?
Answer: The percent effect was -4.3%.

Question: For `O=C(O)[C@@H](c1ccc(OCc2ccc3ccccc3n2)cc1)C1CCCC1` [veliflapon], which mCherry [1] is on record?
Answer: The mCherry was 70.6%.

Question: And the percent effect [2]?
Answer: Its percent effect is -5.12%.

Question: What does the source list for `C=C[C@]1(C)C[C@@H](OC(=O)CSCCN(CC)CC)[C@]2(C)[C@H](C)CC[C@]3(CCC(=O)[C@H]32)[C@@H](C)[C@@H]1O` [tiamulin]?
Answer: mCherry [1]: 88.9%; percent effect [2]: -3.97%
